Measurements as given in PMC7819943, “Rice protein-binding microarrays: a tool to detect cis-acting elements near promoter regions in rice”.
This is one part of the list.

The sequences below were run against T1, OsSMF1 (Oryza sativa, UniProt Q6ZLB0 1-436) (assay: protein-binding microarray (RPBM); PBS, 2% BSA, 51.3 ng/ul salmon testes DNA, 50 uM zinc acetate, 200 nM TF, 25 C, 1 h; high values mean tight binding). Conditions: protein: recombinant; tags: N-terminal polyhistidine and DsRed monomer fusion (pET32a); chain copies: 2; label: CyDye5-dUTP incorporated in the synthesized complementary strand; 3' TTTTT single-stranded linker to array surface; dsDNA, one strand shown.
T1 sequence: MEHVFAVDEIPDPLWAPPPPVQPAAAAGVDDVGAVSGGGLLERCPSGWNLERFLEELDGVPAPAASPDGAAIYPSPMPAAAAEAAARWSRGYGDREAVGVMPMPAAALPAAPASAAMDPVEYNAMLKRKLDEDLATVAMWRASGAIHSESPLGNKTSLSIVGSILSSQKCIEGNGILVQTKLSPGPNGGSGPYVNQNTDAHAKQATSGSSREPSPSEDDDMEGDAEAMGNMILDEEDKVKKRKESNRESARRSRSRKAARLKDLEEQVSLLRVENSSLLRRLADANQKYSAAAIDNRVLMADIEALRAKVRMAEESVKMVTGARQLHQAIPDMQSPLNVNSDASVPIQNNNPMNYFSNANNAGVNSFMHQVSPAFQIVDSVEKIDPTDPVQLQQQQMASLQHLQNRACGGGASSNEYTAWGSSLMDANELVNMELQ
In short: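 Binding signal here means per-feature fluorescence intensity in arbitrary units. The values were read on an Axon 4000B scanner after a custom Agilent array, double-stranded by primer extension with Cy5-dUTP, was incubated with 200 nM protein at 25 °C for 1 h in PBS with 2% BSA, salmon testes DNA and 50 µM zinc acetate, then washed. The proteins were transcription factors with an N-terminal polyhistidine tag and DsRed, expressed in E. coli BL21-CodonPlus and purified on Ni–NTA.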

Sequence	binding signal
AAGCCAGCTATTACTAGACCAGACTAATCGCTTGACCTGTCGGAGTCACCTAGTGCAG	10100 fluorescence intensity (a.u.)
AAATAACAAAATTACAAGTTTAACATAAATATGTAATCACCGGAGTCACCTAGTGCAG	21200 fluorescence intensity (a.u.)
TTTCCTTCGCTAGGCCGAAGCCTAGCTCTGTCACCATGTCCGGAGTCACCTAGTGCAG	3530 fluorescence intensity (a.u.)
AACGTGAGAGCTTCCATGCTTATATATTACTTACCCCAGCCGGAGTCACCTAGTGCAG	3440 fluorescence intensity (a.u.)
CCTTCACGTATTGACTAGATCTGGTTAGTCAGACACCTCTCGGAGTCACCTAGTGCAG	4780 fluorescence intensity (a.u.)
GATACATGTATGTATGACAGGTGCGACCAAGTATAAATTGCGGAGTCACCTAGTGCAG	3240 fluorescence intensity (a.u.)
GTCGCCACTGCCCACCTCATTTAGCTTCGCGGGTTGCTTCCGGAGTCACCTAGTGCAG	3360 fluorescence intensity (a.u.)
GCACCAAACCGTACCAAACCAGACTAACGGCCCATGCAACCGGAGTCACCTAGTGCAG	8760 fluorescence intensity (a.u.)
CCCCATGACAAGTCCACATAAGTCTTCAAATACTGCTCGACGGAGTCACCTAGTGCAG	4180 fluorescence intensity (a.u.)
GAGAAGGTTAGGCTTGGGCGTGGTGTGGTGTTGGTGGGTGCGGAGTCACCTAGTGCAG	3230 fluorescence intensity (a.u.)
TCCAGCACACACGCCGCACACGCGTACACCCAAGTTGCCTCGGAGTCACCTAGTGCAG	4160 fluorescence intensity (a.u.)
CGTAGCCCATTACGTGGGTCCACCGCCACGCCTACCCATTCGGAGTCACCTAGTGCAG	25700 fluorescence intensity (a.u.)
ATGCTATATAAATGCCACGTTGTGCGAAGACCAAGTCAACCGGAGTCACCTAGTGCAG	3510 fluorescence intensity (a.u.)
GCAAAAGCATCTTGGAGGAGATACAGTCAGCTGGCAATCCCGGAGTCACCTAGTGCAG	4160 fluorescence intensity (a.u.)
AGAGCCAAACAAAATAGGGAAGTTCTAAATTAAATAACATCGGAGTCACCTAGTGCAG	27600 fluorescence intensity (a.u.)
ACTTATTATGCAACTGTGATGATGTAACTGTGATGTTTATCGGAGTCACCTAGTGCAG	3190 fluorescence intensity (a.u.)
TTGGCTGGAGCATCGTCACTACTATTCGACACTAAGGTGTCGGAGTCACCTAGTGCAG	3240 fluorescence intensity (a.u.)
CAACTCCGCTCGCCAATCCACAGCTGGCCTCCATTTCTTCCGGAGTCACCTAGTGCAG	24000 fluorescence intensity (a.u.)
GTCGCTGGCCTCGGTGAATCCGTGCGCCGCGGCGGCTTCGCGGAGTCACCTAGTGCAG	3340 fluorescence intensity (a.u.)
TTAATTATTAAATTCTTTTCACTGTCTACTACTTGTTCCGCGGAGTCACCTAGTGCAG	22300 fluorescence intensity (a.u.)
CAGTCGAAAGCGTACGGACCCAGGAGAGTTGCTGACTCAGCGGAGTCACCTAGTGCAG	17700 fluorescence intensity (a.u.)

Sequence	binding signal
TCATAAGTACTCGTATACCGACACGATAGTTAACTCATTCCGGAGTCACCTAGTGCAG	3420 fluorescence intensity (a.u.)
AAAGAATATGCTGACCATTAGGCCATTAATCTTGCCCGCGCGGAGTCACCTAGTGCAG	3140 fluorescence intensity (a.u.)
CAGCTAGGATAATTGAGAGTTGACACGTAAGGCAGCTTCGCGGAGTCACCTAGTGCAG	13800 fluorescence intensity (a.u.)
ACTTGATCAGCACACTCTGGTGACATGACAGCTGTAAAGTCGGAGTCACCTAGTGCAG	4180 fluorescence intensity (a.u.)
CGAGGAGCGGGGTGGGGTCGGAGGCGGGGAGGGAGGACGCCGGAGTCACCTAGTGCAG	4780 fluorescence intensity (a.u.)
TCAAGGGAGATGGAGGGTTGCAGCGGCGGCGGAGGGGCGGCGGAGTCACCTAGTGCAG	5320 fluorescence intensity (a.u.)
GTTGTACTGTGCTCATCGGCGCCACACGTCGCGGTGCATGCGGAGTCACCTAGTGCAG	3330 fluorescence intensity (a.u.)
CTAGTAAGCATTGATCATGCATTTCTAAACTCAATGGCTGCGGAGTCACCTAGTGCAG	3280 fluorescence intensity (a.u.)
TCGTCCGCTCCGCTTCAGCGAATCGGCACCGCCGCGTGTCCGGAGTCACCTAGTGCAG	3640 fluorescence intensity (a.u.)
AGTGATCAGAATTCAGACATTATACTGTTCTATGATAATACGGAGTCACCTAGTGCAG	38000 fluorescence intensity (a.u.)
ACACATCCAGCTCCTACCTCTCCTGAATCGCTCGTCAGATCGGAGTCACCTAGTGCAG	3810 fluorescence intensity (a.u.)
TCATTCGTGATTTACAAGTGCCTTGACACAGGCAAGATTGCGGAGTCACCTAGTGCAG	3510 fluorescence intensity (a.u.)
GAGTTGCAGTGCGTGTGCTAGCTGCAAGAGAGCTAGCTAGCGGAGTCACCTAGTGCAG	36300 fluorescence intensity (a.u.)
GCCGAGCTCGCCGTACCCCGCCGCGTGTGCCTCCCGCCGCCGGAGTCACCTAGTGCAG	5180 fluorescence intensity (a.u.)
TATGTTCATTTCCTTATTTGCCTCTCGTCATGTCTCTTGACGGAGTCACCTAGTGCAG	3420 fluorescence intensity (a.u.)
AATGACTCACTGATTTGTTTAGATGATCGATTAATTGCATCGGAGTCACCTAGTGCAG	4540 fluorescence intensity (a.u.)
GACGTTAGCAGGGATGACCAAAAGGTTGATAGACTCGCGACGGAGTCACCTAGTGCAG	27300 fluorescence intensity (a.u.)
AAATTTTAACTTATAGTGACGTGGACGAATCTCGAATGTCCGGAGTCACCTAGTGCAG	17200 fluorescence intensity (a.u.)
GTCCTTCACATTACAACTTGTGATTCATGCCCCGTAATGGCGGAGTCACCTAGTGCAG	3240 fluorescence intensity (a.u.)
TCCCTAACCCCAACCTCCGCAGCAAGCTCCACCACTTTGCCGGAGTCACCTAGTGCAG	3350 fluorescence intensity (a.u.)
TTTGTTCCTCGATACATGACAATATATCACAAGCGACTATCGGAGTCACCTAGTGCAG	3560 fluorescence intensity (a.u.)
